41 molecules from patent publication US20190038704A1 can be followed below.

Protein sequences, listed by entry. Tags and fused reporters are not part of them. Lines headed by an entry give the natural chain unless they say otherwise; changes in a name come on top.
UniProt Q03137: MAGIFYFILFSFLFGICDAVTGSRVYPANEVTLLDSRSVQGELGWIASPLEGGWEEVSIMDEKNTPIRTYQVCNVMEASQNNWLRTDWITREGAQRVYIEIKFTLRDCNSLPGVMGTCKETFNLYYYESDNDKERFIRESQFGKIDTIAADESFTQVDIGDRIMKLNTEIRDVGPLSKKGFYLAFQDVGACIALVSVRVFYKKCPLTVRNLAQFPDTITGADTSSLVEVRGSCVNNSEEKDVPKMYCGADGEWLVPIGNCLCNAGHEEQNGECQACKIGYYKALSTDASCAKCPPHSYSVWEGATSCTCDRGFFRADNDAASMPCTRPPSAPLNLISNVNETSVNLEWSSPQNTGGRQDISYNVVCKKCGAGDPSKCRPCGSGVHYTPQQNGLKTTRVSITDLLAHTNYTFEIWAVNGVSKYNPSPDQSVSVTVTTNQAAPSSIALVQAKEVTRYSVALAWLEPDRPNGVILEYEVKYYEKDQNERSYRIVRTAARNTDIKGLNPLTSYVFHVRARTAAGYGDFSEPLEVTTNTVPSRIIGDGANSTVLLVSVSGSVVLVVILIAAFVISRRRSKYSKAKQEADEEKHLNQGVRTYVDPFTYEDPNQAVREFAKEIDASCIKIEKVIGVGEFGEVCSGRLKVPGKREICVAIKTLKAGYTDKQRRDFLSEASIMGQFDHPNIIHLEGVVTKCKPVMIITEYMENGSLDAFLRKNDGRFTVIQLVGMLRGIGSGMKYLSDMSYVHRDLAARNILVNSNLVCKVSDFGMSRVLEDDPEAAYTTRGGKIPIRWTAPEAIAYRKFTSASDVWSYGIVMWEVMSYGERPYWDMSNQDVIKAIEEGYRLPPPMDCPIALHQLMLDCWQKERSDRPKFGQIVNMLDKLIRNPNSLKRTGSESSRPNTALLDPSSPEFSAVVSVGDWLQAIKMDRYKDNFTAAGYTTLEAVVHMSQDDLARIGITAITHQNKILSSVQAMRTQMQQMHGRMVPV

These are yes or no findings as the source states them, for the method shown. Some results given as binding are weak or reduced against the parent protein; the word gives no strength.

Experiment [1] addresses mouse EphA4 ectodomain fused to Fc (mouse) (UniProt Q03137). Kind of experiment: phage ELISA on immobilized EphA4 Fc; grade = KYL concentration needed to inhibit phage-EphA4 binding. On the technique in general: In an ELISA, binding on a coated surface is turned into a signal by an enzyme label.
The target is the same in experiment [2]. In words: phage ELISA on immobilized EphA4 Fc; clone 3-13 marked 'Not from panning' in Table 5.
Experiment [3] has the same target. In words: phage ELISA on immobilized EphA4 Fc with KYL as competitor.
Experiment [4] shares this target. Kind of experiment: phage ELISA on immobilized EphA4 Fc; clone 3-19 marked 'Not from panning' in Table 5.
Experiment [5] has the same target. Kind of experiment: phage ELISA on immobilized EphA4 Fc; clone 3-18 marked 'Not from panning' in Table 5.
Experiment [6] shares this target. Kind of experiment: phage ELISA on immobilized EphA4 Fc; clone 3-8 marked 'Not from panning' in Table 5.
For experiment [7] the target is unchanged. Kind of experiment: phage ELISA on immobilized EphA4 Fc; clone 3-15 marked 'Not from panning' in Table 5.
Experiment [8] shares this target. Kind of experiment: phage ELISA on immobilized EphA4 Fc; clone 3-7 marked 'Not from panning' in Table 5.
Experiment [9] has the same target. In words: phage ELISA on immobilized EphA4 Fc; clone 3-14 marked 'Not from panning' in Table 5.

B1: phage clone 4-6 … (peptide)
peptide: LPLCVYRGSWSC
B1: in experiment [1], the binding result is on record as “binds”.

B2: phage clone 1-3 … (peptide)
peptide: APLCVWRGSWSC
Consider B2, for which, in experiment [1], the binding entry was “binds”.

B3: phage clone 4-11 … (peptide)
peptide: LPVCVYRGSWSC
As to B3, the binding result in experiment [1] is reported as “binds”.

B4: phage clone 3-2 … (peptide)
peptide: APYCVYDGTWIC
In the case of B4, the binding result in experiment [1] is given as “binds”.

B5: phage clone 3-1 … (peptide)
peptide: APYCVYTGEWLC
Take B5: the binding result in experiment [1] was “binds”.

B6: phage clone 1-6 … (peptide)
peptide: APWCVFRGSWSC
As for B6, in experiment [1], the binding entry is recorded as “binds”.

B7: phage clone 3-13 … (peptide)
peptide: APYCVYQGLWEC
B7: the binding entry in experiment [2] is “binds”.

B8: phage clone 3-3 … (peptide)
peptide: APYCVYGGTWRC
Consider B8, for which, in experiment [1], the binding result was “binds”.

B9: phage clone 3-4 … (peptide)
peptide: APYCVYSGTWHC
As for B9, the binding result in experiment [1] is reported as “binds”.

B10: phage clone 1-1 … (peptide)
peptide: APYCVWRGSWSC
B10: the binding entry in [1] was “binds”.

B11: phage clone 1-5 … (peptide)
peptide: APICVYRGSWSC
In the case of B11, the binding entry in [1] was “binds”.

B12: phage clone 4-4 … (peptide)
peptide: AAFCVYRGSWSC
For the molecule B12, in experiment [1], the binding result was “binds”.

B13: phage clone 3-9 … (peptide)
peptide: APYCVYSGVWNC
With B13, the binding result in experiment [1] is “binds”.

B14: phage clone 1-2 … (peptide)
peptide: APVCVWRGSWSC
In the case of B14, the binding result in experiment [1] was “binds”.

B15: KYL peptide … (peptide)
peptide: KYLPYWPVLSSL
Regarding B15, in [3], the binding result is “binds”.

B16: phage clone 4-12 … (peptide)
peptide: YPMCVYRGSWSC
Consider B16, for which the binding result in experiment [1] is “binds”.

B17: phage clone 3-19 … (peptide)
peptide: GPYCVYKGNWWC
B17: the binding result in experiment [1] and in experiment [4] was “binds” throughout.

B18: phage clone 4-8 … (peptide)
peptide: SALCVYRGSWSC
For B18, the binding result in experiment [1] is listed as “binds”.

B19: phage clone 1-7 … (peptide)
peptide: APHCVFRGSWSC
Regarding B19, the binding entry in experiment [1] is on record as “binds”.

B20: phage clone 4-5 … (peptide)
peptide: APLCVYRGSWSC
For the molecule B20, in experiment [1], the binding result is recorded as “binds”.

B21: phage clone 3-10 … (peptide)
peptide: APYCVYSGWWKC
As for B21, the binding result in [1] was “binds”.

B22: phage clone 1-4 … (peptide)
peptide: APLCVYRGSWSC
For the molecule B22, the binding result in [1] is given as “binds”.

B23: phage clone 4-3 … (peptide)
peptide: DAYCVYRGSWSC
For B23, in experiment [1], the binding entry is given as “binds”.

B24: phage clone 4-7 … (peptide)
peptide: GPLCVYRGSWSC
Regarding B24, the binding entry in [1] is given as “binds”.

B25: phage clone 3-18 … (peptide)
peptide: APYCVYRGHWGC
As to B25, the binding entry in experiment [5] is on record as “binds”.

B26: phage clone 4-10 … (peptide)
peptide: FPVCVYRGSWSC
On to B26, for which the binding result in experiment [1] is “binds”.

B27: phage clone 4-2 … (peptide)
peptide: EPYCVYRGSWSC
For B27, in experiment [1], the binding entry is recorded as “binds”.

B28: phage clone 2-1 … (peptide)
peptide: APYCSYYGQWMC
Turning to B28, the binding result in experiment [1] is “binds”.

B29: phage clone 3-16 … (peptide)
peptide: APYCVYQGYWKC
As for B29, the binding result in experiment [1] is “binds”.

B30: phage clone 3-5 … (peptide)
peptide: APYCVYNGTWNC
B30: in experiment [1], the binding result is recorded as “binds”.

B31: phage clone 3-8 … (peptide)
peptide: APYCVYEGLWNC
Consider B31, for which the binding entry in experiment [6] was “binds”.

B32: phage clone 2-2 … (peptide)
peptide: APFCLYTGDWVC
Turning to B32, the binding entry in experiment [1] is “binds”.

B33: phage clone 4-9 … (peptide)
peptide: QALCVYRGSWSC
B33: the binding entry in experiment [1] is “binds”.

B34: phage clone 3-15 … (peptide)
peptide: APYCVYAGKWSC
As to B34, the binding result in experiment [7] is given as “binds”.

B35: phage clone 3-7 … (peptide)
peptide: APYCVYKGSWNC
Regarding B35, the binding entry in [8] was “binds”.

B36: phage clone 3-17 … (peptide)
peptide: APYCVYNGRWDC
Regarding B36, the binding result in experiment [1] was “binds”.

B37: phage clone 2-3 … (peptide)
peptide: APFCSWAGWWTC
Take B37: the binding result in experiment [1] is on record as “binds”.

B38: phage clone 3-12 … (peptide)
peptide: APYCVYRGVWEC
Consider B38, for which the binding result in experiment [1] is reported as “binds”.

B39: phage clone 3-11 … (peptide)
peptide: APYCVYSGRWEC
For B39, in [1], the binding result is “binds”.

B40: phage clone 3-14 … (peptide)
peptide: APYCVYGGLWTC
Consider B40, for which the binding result in [1] and in [9] was “binds” throughout.

B41: phage clone 3-6 … (peptide)
peptide: APYCVYDGSWNC
For B41, in [1], the binding result is reported as “binds”.
